Measured values published in publication PMC3258524.
Results are given in words; binding and its absence hold for the method and conditions named. Some results given as binding are weak or reduced against the parent protein; the word gives no strength.

Chains of the proteins cited; added tags and fusions are not shown. Lines headed by an entry give the natural chain unless they say otherwise; changes in a name come on top. A line that says so, or that is headed by a name, gives the form on record, which may keep a tag or linker. Residues count along the entry.
MITF serine-rich C-terminal activation domain S (MITF-A residues 402-520) (O75030, residues 408-526): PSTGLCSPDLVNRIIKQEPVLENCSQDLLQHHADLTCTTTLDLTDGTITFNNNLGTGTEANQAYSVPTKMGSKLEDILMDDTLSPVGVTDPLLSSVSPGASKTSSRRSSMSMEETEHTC
MITF-A activation domain AD (residues 118-297) (O75030, form named): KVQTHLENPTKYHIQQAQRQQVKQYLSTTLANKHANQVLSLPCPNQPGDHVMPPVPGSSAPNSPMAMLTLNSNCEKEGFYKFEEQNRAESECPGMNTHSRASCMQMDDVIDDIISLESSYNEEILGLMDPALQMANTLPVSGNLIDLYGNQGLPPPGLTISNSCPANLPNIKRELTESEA
MITF-A fragment B1b-AD (residues 36-297) (O75030, form named): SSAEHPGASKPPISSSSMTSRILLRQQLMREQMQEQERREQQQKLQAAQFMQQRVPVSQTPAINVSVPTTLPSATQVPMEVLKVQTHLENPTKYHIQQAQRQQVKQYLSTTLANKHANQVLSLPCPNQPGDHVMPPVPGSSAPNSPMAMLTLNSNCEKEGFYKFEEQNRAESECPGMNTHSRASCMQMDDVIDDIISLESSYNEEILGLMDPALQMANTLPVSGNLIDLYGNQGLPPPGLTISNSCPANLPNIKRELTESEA
full-length MITF-M (microphthalmia-associated transcription factor, isoform M) (O75030, form named): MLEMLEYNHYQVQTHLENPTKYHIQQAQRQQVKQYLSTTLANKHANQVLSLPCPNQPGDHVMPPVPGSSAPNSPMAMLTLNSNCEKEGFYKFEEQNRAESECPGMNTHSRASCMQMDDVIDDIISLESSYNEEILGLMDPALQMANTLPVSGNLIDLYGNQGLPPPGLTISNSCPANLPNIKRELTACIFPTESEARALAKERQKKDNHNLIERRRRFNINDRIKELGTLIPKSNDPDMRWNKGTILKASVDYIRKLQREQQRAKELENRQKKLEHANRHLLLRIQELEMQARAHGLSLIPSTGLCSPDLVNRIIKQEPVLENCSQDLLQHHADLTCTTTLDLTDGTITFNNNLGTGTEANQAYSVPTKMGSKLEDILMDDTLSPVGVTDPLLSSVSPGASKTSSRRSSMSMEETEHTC
MITF-M fragment M-AD (residues 1-196) (O75030, form named): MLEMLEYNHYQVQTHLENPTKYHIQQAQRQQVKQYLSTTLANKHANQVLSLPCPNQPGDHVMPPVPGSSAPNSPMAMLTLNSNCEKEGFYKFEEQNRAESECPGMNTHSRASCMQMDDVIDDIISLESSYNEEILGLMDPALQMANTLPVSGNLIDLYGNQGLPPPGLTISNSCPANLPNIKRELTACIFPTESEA
full-length MITF-A (microphthalmia-associated transcription factor, isoform A) (O75030, form named): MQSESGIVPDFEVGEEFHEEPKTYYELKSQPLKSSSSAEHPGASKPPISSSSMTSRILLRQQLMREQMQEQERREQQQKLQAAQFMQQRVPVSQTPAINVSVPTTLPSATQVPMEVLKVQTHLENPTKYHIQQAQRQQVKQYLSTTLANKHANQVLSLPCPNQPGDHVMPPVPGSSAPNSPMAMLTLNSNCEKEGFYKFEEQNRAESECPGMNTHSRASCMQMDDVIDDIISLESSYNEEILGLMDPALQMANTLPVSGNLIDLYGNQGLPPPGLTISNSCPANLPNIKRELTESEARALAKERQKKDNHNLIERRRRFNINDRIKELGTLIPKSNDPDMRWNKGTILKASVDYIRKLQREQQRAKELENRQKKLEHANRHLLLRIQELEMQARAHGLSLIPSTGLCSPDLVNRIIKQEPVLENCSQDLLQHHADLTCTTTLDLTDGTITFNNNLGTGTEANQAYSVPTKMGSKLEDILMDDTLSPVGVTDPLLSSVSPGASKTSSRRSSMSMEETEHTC
MITF-A fragment A-B1b-AD (residues 1-297) (O75030, form named): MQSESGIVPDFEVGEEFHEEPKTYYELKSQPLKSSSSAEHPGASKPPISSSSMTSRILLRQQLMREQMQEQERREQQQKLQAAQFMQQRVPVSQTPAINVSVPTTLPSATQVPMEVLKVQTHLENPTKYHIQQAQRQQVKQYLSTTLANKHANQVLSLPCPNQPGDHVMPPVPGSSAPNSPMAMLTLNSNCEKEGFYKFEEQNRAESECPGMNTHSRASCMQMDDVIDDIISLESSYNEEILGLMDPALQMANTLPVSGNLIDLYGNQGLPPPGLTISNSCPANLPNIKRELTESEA
OTX2 DNA-binding homeodomain HD (residues 37-109) (P32243-2, form named): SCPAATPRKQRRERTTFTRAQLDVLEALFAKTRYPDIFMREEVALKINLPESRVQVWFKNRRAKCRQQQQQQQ
full-length OTX2 (orthodenticle homeobox 2) (P32243-2, form named): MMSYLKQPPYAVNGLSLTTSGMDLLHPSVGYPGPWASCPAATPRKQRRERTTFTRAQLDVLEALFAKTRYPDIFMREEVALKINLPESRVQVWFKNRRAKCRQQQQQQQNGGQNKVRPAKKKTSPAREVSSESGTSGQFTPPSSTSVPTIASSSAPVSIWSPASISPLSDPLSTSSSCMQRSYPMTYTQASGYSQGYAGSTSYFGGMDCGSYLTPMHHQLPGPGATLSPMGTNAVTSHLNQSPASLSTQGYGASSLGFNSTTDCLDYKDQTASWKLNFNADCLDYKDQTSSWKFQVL

What was measured:
Assay in all cases: two-hybrid; Matchmaker GAL4 System 3 in yeast; MITF constructs in pGBKT7 (GAL4 DNA-binding domain) as bait, OTX2 constructs in pGADT7 (GAL4 activation domain) as prey; beta-galactosidase reporter, compared with autoactivation of bait or prey alone
[1] = target: MITF serine-rich C-terminal activation domain S (MITF-A residues 402-520) (UniProt O75030)
[2] = target: MITF-A activation domain AD (residues 118-297) (UniProt O75030)
[3] = target: MITF-A fragment B1b-AD (residues 36-297) (UniProt O75030)
[4] = target: full-length MITF-M (microphthalmia-associated transcription factor, isoform M) (UniProt O75030)
[5] = target: MITF-M fragment M-AD (residues 1-196) (UniProt O75030)
[6] = target: full-length MITF-A (microphthalmia-associated transcription factor, isoform A) (UniProt O75030)
[7] = target: MITF-A fragment A-B1b-AD (residues 1-297) (UniProt O75030)

Measured: binding

OTX2 DNA-binding homeodomain HD (residues 37-109) (from UniProt P32243-2 37-109) (domain or fragment)
binds: [1] | [2]

full-length OTX2 (orthodenticle homeobox 2) (from UniProt P32243-2 1-297)
binds: [1] | [3] | [4] | [5] | [6] | [2] | [7]
